This is an account of results in patent US20140274906A1 (NONO, published 2014).

Results are given in words; binding and its absence hold for the method and conditions named. Some results given as binding are weak or reduced against the parent protein; the word gives no strength. Tags and fused reporters may be left off the sequences shown.

The target of test [1] is T1, biotinylated Src 40-58 peptide (human, also: biotinylated, position not given here).
T1 construct: Probe in dot blots (~15 ug/ml) and ELISA (6 uM); also called biotin-Src 40-58; Biotin-Src 40-58
T1 peptide: KPASADGHRGPSAAFVPAA
In words: ELISA (FIG. 3C); member of FIG. 3A by SEQ ID NO 21. In general terms: An ELISA detects its analyte on a solid surface through an enzyme-linked reagent.

The target in test [2] is T1, biotinylated Src 40-58 peptide. The test is described as follows: dot blot of GST proteins probed with Biotin-Src 40-58 (FIG. 3B).
Test [3] has the same target. In words: ELISA (FIG. 3C).
The target of test [4] is T2, biotinylated Src40-49 peptide (human, also: biotinylated, position not given here).
T2 construct: Labelled probe; also called bio-Src 40-49; Bio-Src40-49
T2 peptide: KPASADGHRG
The test is described as follows: dot blot (FIG. 4A).

Test [5] deals with T1, biotinylated Src 40-58 peptide. The test is described as follows: dot blot (FIG. 4A); the legend prints Src 40-58, the text Src 40-49.
Test [6] addresses T2, biotinylated Src40-49 peptide. In words: ELISA (FIG. 4B).
Test [7] addresses T1, biotinylated Src 40-58 peptide. The test is described as follows: ELISA (FIG. 3C); member of FIG. 3A by SEQ ID NO 18.
For test [8] the target is unchanged. In words: ELISA (FIG. 3C); member of FIG. 3A by SEQ ID NO 25.

For ITLLPMSNNVKMKWQFEHTK (peptide, not shown: a dimerising Fc or GST) [ND2 302-321 (GST construct)], the binding result in test [1], in test [2] and in test [3] was “binds” each time.

For NLYFYLRLIYSTSITLLPMSN (peptide, not shown: a dimerising Fc or GST) [ND2 289-309 (GST construct)], the binding entry in test [2] and in test [3] was “binds” in each case.

Turning to STSITLLPMSNNVKMKWQFE (peptide, not shown: a dimerising Fc or GST) [ND2 299-318 (GST construct)], the binding entry in test [2] and in test [3] was “binds” throughout.

Take NVKMKWQFE (peptide, not shown: a dimerising Fc or GST) [ND2 310-318 (ND2 construct of FIG. 4)]: the binding result in test [4], in test [5] and in test [6] was “binds” throughout.

On to YFYLRLIYSTSIT (peptide, not shown: a dimerising Fc or GST) [ND2 291-303 (GST construct)], for which the binding entry in test [3] and in test [7] was “binds” in each case.

As for KWQFEHTK (peptide, not shown: a dimerising Fc or GST) [ND2 314-321 (GST construct)], the binding entry in test [8] and in test [3] was “binds” in each case.

MSNNVKMKWQFEHTK (peptide, not shown: a dimerising Fc or GST) [ND2 307-321 (GST construct)]: the binding result in test [2] and in test [3] was “binds” throughout.

For MSNNVKMKWQFE (peptide, not shown: a dimerising Fc or GST) [ND2 307-318 (ND2 construct of FIG. 4)], the binding result in test [4], in test [5] and in test [6] was “binds” each time.

Regarding NVKMKWQFEHTK (peptide, not shown: a dimerising Fc or GST) [ND2 310-321 (GST construct)], the binding result in test [4], in test [2], in test [5], in test [3] and in test [6] was “binds” in each case.
